Measured values taken from the supplement of paper PMC7858590.
± gives the standard deviation of the averaged measurements. Over roughly 3,800 compounds, “cell shape (eccentricity) Z-score vs DMSO control” has its median near 1.1; the lowest 2% begin near -4.7. This is one part of the list.

Tested on: human monocyte-derived macrophages (M0)
Assay: cell shape (eccentricity) Z-score vs DMSO control; higher = more elongated, M2-like morphology
Conditions: 20 µM; 24 h; macrophage state: M0 (M-CSF)

| Structure (SMILES) | cell shape (Z-score) |
| --- | --- |
| CCCCCCCCCCCCCCCCOP(=O)(O)OCC[N+](C)(C)C | 0.672 |
| COc1cc(OC)c(-c2c(OC)cc(OC)cc2OC)c(OC)c1 | 4.37 |
| COc1cc(O)c(CCO)c2c1C(=O)C[C@@H](C)O2 | 2.13 |
| CCC(=O)OCC(=O)[C@@]1(OC(=O)CC)[C@H](C)CC2C3C([C@@H](O)C[C@@]21C)[C@@]1(C)C=CC(=O)C=C1C[C@H]3Cl (some centres not stated) | -0.0138 |
| COc1ccc(C[C@H](N)C(=O)N[C@@H]2[C@@H](CO)OC(n3cnc4c(N(C)C)ncnc43)[C@@H]2O)cc1 (some centres not stated) | -3.92 |
| CCC(C)C(O)C(C)(O)/C=C/C1=CC2=C(Cl)C(=O)C(C)(O)C(O)C2=CO1 (configuration not stated) | -0.397 |
| CCOC(=O)C(CCc1ccccc1)NC1CCc2ccccc2N(CC(=O)O)C1=O (configuration not stated) | -1.07 |
| COc1ccc(-c2oc3cc(OC)c(OC)c(O)c3c(=O)c2OC)cc1OC | 1.24 |
| Cc1ccccc1N1C(=O)c2cc(S(N)(=O)=O)c(Cl)cc2NC1C (configuration not stated) | -0.955 |
| COc1cc([C@@H]2c3cc4c(cc3C(OC3OC5COC(C)OC5C(O)C3O)C3OCC(=O)[C@@H]32)OCO4)cc(OC)c1O (some centres not stated) | 2.58 |
| CC1=CC(=O)c2ccccc2C1=O | -4.32 |
| Nc1cc(Nc2ccc(S(N)(=O)=O)cc2)ncn1 | 0.81 |
| CC1(C)CC[C@@]2(C(=O)O)C(C1)C1=CCC3[C@@]4(C)CC[C@H](O[C@@H]5O[C@H](C(=O)O)[C@@H](O[C@H]6OC[C@](O)(CO)[C@H]6O)[C@H](O)[C@H]5O)C(C)(C)C4CC[C@@]3(C)[C@]1(C)C[C@H]2O (some centres not stated) | 2.82 |
| O[C@]12CO[C@H](c3ccc4c(c3)OCO4)[C@H]1CO[C@@H]2c1ccc2c(c1)OCO2 | -1.62 ± 1.1 |
| COc1ccc(-n2nc3c4c([nH]cc-3c2=O)CCCCC4)cc1 | 1.21 |
| COc1ccc(C2CC(=O)Oc3cc(O)cc(O)c32)cc1 (configuration not stated) | -0.542 |
| O=C1Nc2cc(Br)ccc2/C1=C1/Nc2ccccc2/C1=N/O | 5.17 |
| Cc1ccccc1C(OCCN(C)C)c1ccccc1 (configuration not stated) | -0.651 |
| CNCCCCOc1ccccc1Cc1ccccc1 | 4.84 |

| Structure (SMILES) | cell shape (Z-score) |
| --- | --- |
| CCCCOC(=O)c1ccc(O)cc1 | 1.53 |
| COC(=O)[C@H]1[C@H]2C[C@H]3c4[nH]c5ccccc5c4CCN3C[C@H]2CC[C@@H]1O | 2.17 |
| Oc1ncnc2ccccc12 | 1.8 |
| O=S(=O)(c1cccc2cnccc12)N1CCCNCC1 | 8.08 ± 1.5 |
| C=CCNC1=C2C[C@@H](C)C[C@H](OC)[C@H](O)[C@@H](C)/C=C(\C)[C@H](OC(N)=O)[C@@H](OC)/C=C\C=C(/C)C(=O)NC(=CC1=O)C2=O | 2.37 |
| C=CC(C)(C)[C@@]12C[C@H]3C(=O)N[C@H]([C@@H](C)CC)C(=O)N3[C@@H]1Nc1ccccc12 | -1.4 |
| COC(=O)C1=C(C)NC(C)=C([N+](=O)[O-])C1c1ccccc1C(F)(F)F (configuration not stated) | 2.59 |
| C[C@@H]1O[C@@H](OC[C@H]2O[C@@H](Oc3c(-c4ccc(O)c(O)c4)oc4cc(O)cc(O)c4c3=O)[C@H](O)[C@@H](O)[C@@H]2O)[C@H](O)[C@H](O)[C@H]1O | 3.23 |
| C=C(CCCCCCCC(=O)O)C(=O)O | 0.953 |
| CNCC[C@@H](Oc1ccccc1C)c1ccccc1 | 0.617 |
| COc1ccc(N(C(=O)CCl)C(C(=O)NCCc2ccccc2)c2cccs2)cc1Cl (configuration not stated) | -2.11 |
| CC1(C)NC(=O)N(c2ccc([N+](=O)[O-])c(C(F)(F)F)c2)C1=O | 2.1 |
| CC(C)C1C2CCC(C2)C1N (configuration not stated) | -3.98 |
| NS(=O)(=O)C#Cc1ccccc1 | 3.29 |
| COc1ccc(C2CC(=O)c3ccccc3O2)cc1 (configuration not stated) | 1.92 |
| O=C(O)c1cc(-c2ccc(F)cc2F)ccc1O | 0.278 |
| Cc1cc2c(cc1O[C@@H]1O[C@H](CO[C@@H]3OC[C@@H](O)[C@H](O)[C@H]3O)[C@@H](O)[C@H](O)[C@H]1O)C(=O)c1ccccc1C2=O | 2.61 ± 1.1 |
| CN=C(NC)NCc1ccc(OC)cc1 | -1.04 |
| COC(=O)[C@@]1(C)CCC[C@]2(C)c3ccc(O)c(C(C)C)c3CCC12 (some centres not stated) | -0.308 |

| Structure (SMILES) | cell shape (Z-score) |
| --- | --- |
| CC1(C)CC[C@]2(C(=O)O[C@@H]3O[C@H](CO)[C@@H](O)[C@H](O)[C@H]3O)CC[C@]3(C)C(=CCC4[C@@]5(C)CC[C@H](O[C@@H]6O[C@H](C(=O)O)[C@@H](O[C@@H]7O[C@H](CO)[C@@H](O)[C@H](O)[C@H]7O)[C@H](O)[C@H]6O)C(C)(C)C5CC[C@]43C)C2C1 (some centres not stated) | 0.657 |
| CCC(=O)OCC(=O)C1(OC(=O)CC)C(C)CC2C3CCC4=CC(=O)C=CC4(C)C3(Cl)C(O)CC21C (configuration not stated) | -0.731 |
| O=C1CC(c2ccccc2)Oc2cc(O)cc(O)c21 (configuration not stated) | -3.13 |
| CC(C)[C@@H]1CC[C@@]2(C)[C@H](O)CC[C@@](C)(O)[C@@H]2[C@@H]1OC(=O)/C=C/c1ccccc1 | -0.949 |
| Cc1cc(C)c(N(Cc2ccccc2)S(=O)(=O)c2ccc(OCCNC(=O)c3cc4ccccc4o3)cc2)c(C(=O)NO)c1 | 0.668 |
| O=S1(=O)c2cccc3cccc(c23)N1CCCN1CCN(c2ccc(F)cc2)CC1 | 0.323 |
| O=C1CC(c2ccc(O)cc2)Oc2cc(O[C@@H]3O[C@H](CO)[C@@H](O)[C@H](O)[C@H]3O)cc(O)c21 (some centres not stated) | 0.887 |
| Cc1[nH]c(=O)c(C#N)cc1-c1ccncc1 | 4.18 |
| CC(=O)C1C(=O)[C@@H]2[C@H]3c4c[nH]c5cccc(c45)C[C@H]3C(C)(C)N2C1=O (some centres not stated) | -2.33 |
| OCCN1CCN(CCCN2c3ccccc3Sc3ccc(Cl)cc32)CC1 | -1.01 |
| C/C(=C\C=C\C(C)C)CC/C=C(\C)CCOc1c(O)cc2c(c1O)CNC2=O | 1.89 |
| COc1cc(N2CCC(N3CCN(C)CC3)CC2)ccc1Nc1ncc(Cl)c(Nc2ccccc2S(=O)(=O)C(C)C)n1 | 2.09 |
| CN(C)C(=N)NC(=N)N | 1.78 |
| NCCC(=O)N[C@@H](Cc1cnc[nH]1)C(=O)O.[Zn+3] | 0.66 |
| O=C(Nc1ccccc1)OCC(CN1CCCCC1)OC(=O)Nc1ccccc1 (configuration not stated) | 1.03 |
| Cc1noc(C)c1NC(=O)Nc1ccc2c(c1)C(=O)N([C@@H](C)CO)C[C@@H](C)[C@@H](CN(C)CC1CCCCC1)O2 | 3.18 |
| COC1CCC(C(=O)c2ccc3nc4c(cc3c2)CCCO4)CC1 (configuration not stated) | -0.0555 |
| CCCCC1C(=O)N(c2ccccc2)N(c2ccccc2)C1=O | -2.01 |
| C=C1C(=O)O[C@@H]2[C@H]3C(=C)[C@@H](O[C@@H]4O[C@H](CO)[C@@H](OC(=O)/C=C/c5ccc(O)c(O)c5)[C@H](O)[C@H]4O)C[C@H]3C(=C)C[C@@H](O)[C@@H]12 | 1.59 |

Given as comma-separated lines: three of the compounds above
Structure (SMILES),cell shape (Z-score)
Cc1[nH]c(=O)c(C#N)cc1-c1ccncc1,4.18
O=C(Nc1ccccc1)OCC(CN1CCCCC1)OC(=O)Nc1ccccc1 (configuration not stated),1.03
CCCCC1C(=O)N(c2ccccc2)N(c2ccccc2)C1=O,-2.01
